## Library screen at single concentrations

Protein sequences, listed by entry. Tags and fused reporters are not part of them.
UniProt P9WFT3, whole entry: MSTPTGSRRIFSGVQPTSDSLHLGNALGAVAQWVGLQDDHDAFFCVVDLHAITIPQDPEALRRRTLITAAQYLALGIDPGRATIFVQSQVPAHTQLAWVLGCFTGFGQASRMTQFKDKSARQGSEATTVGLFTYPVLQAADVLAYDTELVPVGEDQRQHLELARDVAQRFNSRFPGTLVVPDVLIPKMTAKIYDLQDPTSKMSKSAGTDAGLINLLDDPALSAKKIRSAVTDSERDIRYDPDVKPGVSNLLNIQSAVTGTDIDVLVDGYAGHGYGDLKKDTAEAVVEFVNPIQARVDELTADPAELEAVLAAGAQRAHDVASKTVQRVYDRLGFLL

Data taken from ChEMBL document CHEMBL3988442, “University of Dundee, Small-Polar-MMV Screening Library” (2021).

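Tryptophan-tRNA ligase, Mycobacterium tuberculosis (UniProt P9WFT3). Enzyme assay of tryptophanyl-tRNA synthetase; the read-out is not stated. Tested at 10 µM. Higher most likely means stronger inhibition; the record gives no direction and few retests gave an IC50. About 65,000 compounds were tested under these conditions; 0.098% (about 64) showed 50% or more at least once.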

Each number is a percent effect as filed.
The record does not define 0% and 100%; most values in the screen are far below 50% and negative numbers occur (in some assays of this library far below -100).
Compounds were drawn at random from those tested, without regard to their results.

{"smiles": "CCc1nnc2n1CCN(C(=O)C(OC)c1ccccc1)C2", "stereo": "centres undefined", "effect": -1.262}
{"smiles": "O=C(CN1CCCC1c1noc(C2CC2)n1)N1CCc2ccccc21", "stereo": "centres undefined", "effect": -5.608}
{"smiles": "Cc1ccc(S(=O)(=O)N2CCC3(CC(C(=O)NC4CCC4)=NO3)C2)cc1", "stereo": "centres undefined", "effect": 3.836}
{"smiles": "Cn1nnc2c1CCN(C(C(=O)N1CCCCC1)c1ccccc1)C2", "stereo": "centres undefined", "effect": -1.288}
{"smiles": "CCc1nc(C2CCCN2Cc2ncc(C)c(OC)c2C)no1", "stereo": "centres undefined", "effect": -3.374}
{"smiles": "NC(=O)CSCC(=O)NC1(c2cccc(Cl)c2)CC1", "effect": 4.45}
{"smiles": "O=C(CCC1CCCC1)N1CCC(O)(C(F)(F)F)C1", "stereo": "centres undefined", "effect": 4.541}
{"smiles": "Cc1ccc(CNC(=O)c2nc3c(o2)CN(c2ncccn2)C3)o1", "effect": -3.991}
{"smiles": "O=C(C1CCCCC1)N1CCN(Cc2nc(-c3ccco3)no2)CC1", "effect": -6.236}
{"smiles": "Cc1cnc(CCNc2cccc(CC3CCCNC3)n2)s1", "stereo": "centres undefined", "effect": -5.789}
{"smiles": "O=C(NC[C@]12COC[C@H]1CN(Cc1ccco1)C2)c1ccccc1", "effect": 3.181}
{"smiles": "CCCS(=O)(=O)N1C[C@H]2OC(=O)N(CCc3cccc(Cl)c3)[C@H]2C1", "effect": -3.552}
{"smiles": "COc1ccc(C(=O)N2C[C@H]3CC[C@@H]2CN(C)C3)cc1Cl", "effect": -1.12}
{"smiles": "CC(C)c1ccc(S(=O)(=O)N2CSCC2C(=O)NCC(F)(F)F)cc1", "stereo": "centres undefined", "effect": 1.022}
{"smiles": "CCOC[C@H]1CC[C@H]2[C@H](CCN2Cc2c(C)noc2C)O1", "effect": 3.81}
{"smiles": "COCC(=O)Nc1ccc(C)cc1-c1nc(C2CC2)no1", "effect": 0}
{"smiles": "CCCN(CCC)Cc1nnsc1Cl", "effect": -4.747}
{"smiles": "COc1cc(N2C[C@H]3CCC[C@@H](CN(C)C4CC4)[C@H]3C2)ncn1", "effect": -2.368}
{"smiles": "CC(C)c1noc(CN(Cc2ccc(F)cc2)C2CC2)n1", "effect": -1.097}
{"smiles": "COc1ccc(C)cc1CN(Cc1ncc(C)o1)C1CCN(C)C1", "stereo": "centres undefined", "effect": 5.206}
{"smiles": "CCn1ccnc1CN1CCCN(C(=O)c2sccc2C#N)CC1", "effect": -1.023}
{"smiles": "CC(=O)c1ccc(C(=O)N2CCC(c3cc(O)nc(C)n3)CC2)s1", "effect": 0.9382}
{"smiles": "COCCCNC(=O)Nc1cccc2c1CCN(S(C)(=O)=O)C2", "effect": 2.534}
{"smiles": "Cc1cc(NCc2cc3n(n2)CCCN(S(C)(=O)=O)C3)ncn1", "effect": -2.59}
{"smiles": "COCC(Nc1ncnc2c1CCNCC2)c1ccccn1", "stereo": "centres undefined", "effect": 3.595}
{"smiles": "CC(C)(C)n1ncc2c(=O)[nH]c(N3CCN(CCO)CC3)nc21", "effect": 1.487}
{"smiles": "CCOCCCn1c(NC(=O)c2cc(C)no2)nc2ccccc21", "effect": 1.885}
{"smiles": "Cc1nn2c(N3CCCC(C(N)=O)C3)cc(-c3ccccc3)nc2c1C", "stereo": "centres undefined", "effect": -3.098}
{"smiles": "CCCc1nc(C(=O)NCCN2CCC(c3ccccc3C)C2)cs1", "stereo": "centres undefined", "effect": -1.589}
{"smiles": "Cc1nc(N(C)C)ncc1C(=O)NCCCn1nccc1C1CC1", "effect": 7.352}
{"smiles": "Cc1nn(C)cc1C(=O)N1CCC(C(=O)c2nc3ccccc3s2)CC1", "effect": 0.06528}
{"smiles": "O=c1c2c(ncn1CCCO)nc1n2CCC1", "effect": -5.253}
{"smiles": "O=C(c1ccn(COc2ccc(F)cc2)n1)N1CCCCCC1", "effect": -2.85}
{"smiles": "CCOCCCNc1ncc(-c2cccc(F)c2)c(-c2nccn2C)n1", "effect": -0.7752}
{"smiles": "CN(C)S(=O)(=O)NCc1nc(-c2cccc(F)c2)c(-c2ccccn2)[nH]1", "effect": 1.009}
{"smiles": "CC(C)(C)c1nccc(N2CCCCC2CNS(C)(=O)=O)n1", "stereo": "centres undefined", "effect": -2.3}
{"smiles": "Cc1[nH]c2c(C)ccc(C)c2c1CC(=O)NCCCNc1cccnc1", "effect": 6.398}
{"smiles": "CS(=O)(=O)CCCSCc1ccc(Br)c(F)c1", "effect": -5.693}
{"smiles": "CCNC(=O)C(C)NC(=O)Nc1ccccc1SCC", "stereo": "centres undefined", "effect": -0.8215}
{"smiles": "Cc1nc2cc(O)nn2c(C)c1CCC(=O)NCCCC(C)C", "effect": -0.3895}
{"smiles": "Cc1cc(NCC2CCN(c3ccccc3)C2)n2ncnc2n1", "stereo": "centres undefined", "effect": -2.081}
{"smiles": "COC1COC2(CCN(C(=O)c3cscn3)CC2)C1", "stereo": "centres undefined", "effect": -6.038}
{"smiles": "COCc1ccccc1NC(=O)[C@@H]1CCCN1C(=O)c1ccco1", "effect": -0.3791}
{"smiles": "Cc1ccc(-n2nnc(C(=O)NCC3(CO)CC3)c2C2CC2)cc1", "effect": -8.731}
{"smiles": "CN1CCCN(C(=O)NCCNc2ncccn2)CC1", "effect": 19.92}
{"smiles": "CCc1nc(C2CCCN(C(=O)c3cccc(Cl)c3)C2)no1", "stereo": "centres undefined", "effect": -6.395}
{"smiles": "COc1cc(CN2C[C@@H]3CNC(=O)[C@H](C)[C@@H]3C2)cc(OC)c1", "effect": -7.794}
{"smiles": "COCCCNC(=O)N1CCN(C(=O)c2nsc3ccccc23)CC1", "effect": 2.931}
{"smiles": "Cc1cccc(OCCNC(=O)Cn2ccc(C)cc2=O)c1", "effect": -0.8639}
{"smiles": "Cc1ccc(Cn2c(=O)[nH]c3csnc3c2=O)cc1", "effect": -0.7698}
{"smiles": "COc1cccc(Nc2nc(C3CCCNC3)c3sc(C)c(C)n23)c1", "stereo": "centres undefined", "effect": -3.646}
{"smiles": "O=C(Cc1csc(-c2ccc(Cl)cc2)n1)NC(C(=O)O)c1ccccc1", "stereo": "centres undefined", "effect": 0.402}
{"smiles": "CCN1CCC(CC(=O)N(C)CC(=O)c2ccc(O)cc2)CC1", "effect": -2.016}
{"smiles": "Cc1ccc(N2CCOCC3(CCCN(c4ncc(F)cn4)C3)C2)nn1", "stereo": "centres undefined", "effect": 1.355}
{"smiles": "O=C1NCC(c2ccc(Cl)cc2)Cc2[nH]c(CCN3CCOCC3)nc21", "stereo": "centres undefined", "effect": -4.072}
{"smiles": "CC1CCN(C)c2ccccc2N1C(=O)c1ccc(=O)n(C)c1", "stereo": "centres undefined", "effect": 3.096}
{"smiles": "Cn1ccnc1CNCC1CCCN1c1cccnn1", "stereo": "centres undefined", "effect": 5.321}
{"smiles": "CC1(C)CC(N2Cc3nc(N4CCCC4)ncc3C2=O)CC(C)(C)N1", "effect": -1.425}
{"smiles": "Cc1cccc2nc(CNC(=O)N3CCC(N4CC=CC4)C3)cn12", "stereo": "centres undefined", "effect": 0.719}

Repeated from the top, 7 entries:

SMILES	effect
CCc1nnc2n1CCN(C(=O)C(OC)c1ccccc1)C2 (centres undefined)	-1.262
O=C(CN1CCCC1c1noc(C2CC2)n1)N1CCc2ccccc21 (centres undefined)	-5.608
Cc1ccc(S(=O)(=O)N2CCC3(CC(C(=O)NC4CCC4)=NO3)C2)cc1 (centres undefined)	3.836
Cn1nnc2c1CCN(C(C(=O)N1CCCCC1)c1ccccc1)C2 (centres undefined)	-1.288
CCc1nc(C2CCCN2Cc2ncc(C)c(OC)c2C)no1 (centres undefined)	-3.374
NC(=O)CSCC(=O)NC1(c2cccc(Cl)c2)CC1	4.45
O=C(CCC1CCCC1)N1CCC(O)(C(F)(F)F)C1 (centres undefined)	4.541